# According to PubChem BioAssay AID1347076 (National Center for Advancing Translational Sciences (NCATS), 2019):
# About 13,000 (3.2%) of roughly 400,000 compounds were called active. Inconclusive means that the source gave no clear call. Such entries were picked first, then a sample of the others. Calls follow the shape of the dose curve; as a rule, active = well fitted cell-killing curve with a large enough effect; inconclusive = small, poorly fitted or top-dose-only effect, or effect the other way; inactive = flat fitted curve, though single readings scatter. Potencies of inconclusive entries are doubtful fits and often do not repeat.
# Assay: qHTS assay for MDR1-selective chemotherapeutics: Primary screen using the drug-selected MDR subline cells KB-V1; also: nearly all actives have a fitted effect of over 60% in size
# Conditions: KB-V1 MDR cells viability, CellTiter-Glo, 72 h; activity change, negative = cytotoxicity: at 46.1 µM (top of the series)
# Method in brief: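 In this primary screen, KB-V1 cells overexpressing P-gp are incubated with library compounds (lowest to highest concentration) for 72 h at 37 degrees C before a luminescent ATP viability read.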
# % is scaled to controls: 0 for no effect and ±100 for the full control effect; potency is read from the fitted curve at half-maximal effect.
SMILES,Potency,"activity change, negative = cytotoxicity"
Cc1cc(NC(=O)c2cc(-c3ccc(Br)cc3)on2)nn1Cc1ccc(Cl)cc1,inactive,–
NC(N)=N/N=C/c1ccc(OCc2ccc(Cl)cc2)cc1,active: 20.6 µM,–
Cc1ccc2nc(Nc3nc(CSc4nnnn4-c4ccccc4)cc(=O)[nH]3)nc(C)c2c1,inactive,–
C/C(CC(=O)NCc1ccco1)=N\NC(=O)c1ccc([N+](=O)[O-])cc1Cl,"inconclusive: 0.411 µM [rising, full curve, poor fit]",–
Cc1ccc(-c2csc3ncnc(SCC(=O)Nc4nnc(C)s4)c23)cc1,"inconclusive: 18.4 µM [cytotoxic, single point]",–
Cc1cccc(N2CCN(C(=O)C3CCC(CNS(=O)(=O)c4cccs4)CC3)CC2)c1C (configuration not stated),"inconclusive: 7.31 µM [cytotoxic, partial curve]",–
CCN(CC)S(=O)(=O)c1cc(-c2nnc(-c3ccc(Br)cc3)o2)ccc1Cl,inactive,–
Cc1cccc(C)c1Nc1nnc(SCC(=O)Nc2cc(S(=O)(=O)N3CCCCC3)ccc2Cl)s1,"inconclusive: 29.1 µM [cytotoxic, single point]",–
CC(C)(C)S(=O)(=O)c1ccsc1C(=O)O,"inconclusive: 29.1 µM [rising, single point]",–
CSc1ccccc1OCc1cc(C(=O)N(C)C2CCCc3ccccc32)no1 (configuration not stated),"inconclusive: 29.1 µM [cytotoxic, single point]",–
CC(=O)Nc1ccc(CN2C(=O)C(Cc3ccccc3)ON=C2c2cccc(F)c2)cc1 (configuration not stated),"inconclusive: 9.2 µM [cytotoxic, partial curve]",–
C/C=N\NC(=O)CNC(=O)CNC(=O)c1ccccc1,inactive,–
Cc1oc2ccccc2c1-c1cn2c(n1)SCC2,"inconclusive: 32.6 µM [cytotoxic, partial curve, poor fit]",–
CN(CC(=O)Nc1cccc(F)c1)C(=O)c1ccc(C2SCCS2)cc1,active: 18.4 µM,–
CC1(C)Cc2c(cnn2-c2ccccc2)C(NC(=O)CCc2ccc(=O)[nH]n2)C1 (configuration not stated),"inconclusive: 9.2 µM [rising, partial curve, poor fit]",–
COc1cccc(OCc2nnc(SCc3cc(=O)[nH]c4ccccc34)o2)c1,"inconclusive: 18.4 µM [cytotoxic, single point]",–
CCOC(=O)c1nn(-c2ccccc2)c2nc(Nc3ccccc3)cc(=O)n12,"inconclusive: 11.6 µM [rising, partial curve, poor fit]",–
CC(=O)N1CCN(C(=O)c2cccc(S(=O)(=O)Nc3ccc(C)cc3)c2)CC1,"inconclusive: 29.1 µM [rising, single point]",–
O=C(COc1ccc(F)cc1)Nc1nnc(SCc2cc(=O)n3ccccc3n2)s1,inactive,–
O=C(NCCc1ccccc1)C1Cc2c(-c3ccc4c(c3)OCO4)ccnc2O1 (configuration not stated),"inconclusive: 29.1 µM [cytotoxic, single point]",–
Cc1noc(C)c1S(=O)(=O)Nc1ccc2c(c1)C(=O)N([C@H](C)CO)C[C@H](C)[C@@H](CN(C)C(=O)CCCN(C)C)OCCCC[C@@H](C)O2,"inconclusive: 9.2 µM [rising, partial curve, poor fit]",–
COc1ccc(CNC(=O)C(=O)NCC2OCCN2S(=O)(=O)c2ccccc2)cc1 (configuration not stated),"inconclusive: 18.4 µM [cytotoxic, single point]",–
CC(C)CN(C(=O)CCNC(=O)c1ccc(Cl)cc1)c1c(N)n(CC(C)C)c(=O)[nH]c1=O,"inconclusive: 5.17 µM [rising, partial curve, poor fit]",–

SMILES,Potency,"activity change, negative = cytotoxicity"
COc1ccc(N2Cc3cccc(C(=O)Nc4ccc(Cl)cc4)c3C2=O)cc1,inactive,–
O=C(Nc1nc2cc3c(cc2s1)OCCO3)c1ccc([N+](=O)[O-])o1,"inconclusive: 7.31 µM [cytotoxic, partial curve, poor fit]",–
CN1c2ccccc2C(C)(C)C12C=Cc1cc(O)ccc1O2 (configuration not stated),"inconclusive: 29.1 µM [cytotoxic, single point]",–
CCC[n+]1c(/C=C/c2c(OC)cc(OC)cc2OC)ccc2ccccc21,inactive,–
CC(=O)N(c1ccc(C(F)(F)F)cc1)S(=O)(=O)c1ccc(N2C(=O)CCC2=O)cc1,"inconclusive: 16.4 µM [rising, single point]",–
CC(=O)c1ccc(S(=O)(=O)N(CCCO)Cc2cc3cc(C)ccc3[nH]c2=O)cc1,"inconclusive: 29.1 µM [rising, single point]",–
COc1cc([N+](=O)[O-])ccc1NC(=O)Nc1nc2c(s1)CCCC2,"inconclusive: 18.4 µM [rising, single point]",–
Cc1ccc(S(=O)Cc2ccc(C(=O)N3CCN(C(=O)c4ccco4)CC3)o2)cc1 (configuration not stated),inactive,–
COc1cccc(C(C)(O)c2nc(-c3cccc(C#N)c3)cs2)c1 (configuration not stated),"inconclusive: 18.4 µM [cytotoxic, single point]",–
Cn1cnc([N+](=O)[O-])c1S(=O)(=O)Oc1ccc(Cl)cc1,"inconclusive: 18.4 µM [cytotoxic, single point]",–
O=C(Nc1nc2n(n1)C(c1ccccc1)C=C(c1ccc(Cl)cc1)N2)c1ccco1 (configuration not stated),inactive,–
Fc1ccc(N=C2NN=C(c3cc(F)ccc3F)CS2)cc1,inactive,–
CCOc1ccccc1C(=O)NC(C(=O)N(C)Cc1ccc2c(c1)OCO2)C(C)C (configuration not stated),"inconclusive: 16.4 µM [cytotoxic, single point]",–
COc1ccc(N(CCC#N)S(=O)(=O)c2ccc(Cl)cc2)cc1,active: 16.4 µM,–
O=C(Nc1ncccc1O)c1cc2ccccc2o1,"inconclusive: 23.1 µM [cytotoxic, single point]",–
CC(NCC(=O)NC(=O)NCCC1=CCCCC1)c1ccc(S(N)(=O)=O)cc1 (configuration not stated),inactive,–
O=C(CN(C(=O)c1csnn1)c1ccc(F)c(Cl)c1)NC1CCCCC1,"inconclusive: 25.9 µM [rising, single point]",–
Cc1ccc(C(=O)Nn2cnnc2)cc1Cl,"inconclusive: 25.9 µM [rising, single point]",–
COc1ccc(CCNc2nc(C)cc(C)n2)cc1OC,inactive,–
CCc1c(C)nc2[nH]nc(-c3ccccc3C)n2c1=O,inactive,–
Cc1ccc(OCCC(=O)OCC(=O)c2c(N)n(C)c(=O)n(C)c2=O)cc1,–,inconclusive: -33.8% [cytotoxic]
O=C(CCCN1C(=O)S/C(=C\C=C\c2ccccc2)C1=O)Nc1ccc(C(=O)O)cc1,"inconclusive: 11.6 µM [rising, partial curve]",–
OCCC1CN(Cc2ccc3nonc3c2)CCN1Cc1ccsc1 (configuration not stated),"inconclusive: 29.1 µM [cytotoxic, partial curve, poor fit]",–

SMILES,Potency,"activity change, negative = cytotoxicity"
COc1ccc(CCC(=O)NNC(=O)c2ccccn2)cc1OC,"inconclusive: 4.61 µM [cytotoxic, full curve]",–
CCCCCC(=O)N1C[C@H](n2cc(-c3ccc(F)cc3)nn2)[C@@H](O)C[C@@H]1c1ccc(Cl)cc1,"inconclusive: 25.9 µM [cytotoxic, single point]",–
CCOC(=O)CN(C(=O)COc1nc(-c2ccccc2)cc(C)c1C#N)c1ccc(C)cc1,"inconclusive: 2.91 µM [cytotoxic, full curve]",–
Cc1[nH]c(C)c(S(=O)(=O)Nc2ccccc2Cl)c1C(=O)N1CCCC1,"inconclusive: 29.1 µM [rising, single point]",–
Cc1ccc(SCC(=O)NCc2ccco2)cc1,inactive,–
NNc1nc(-c2ccccc2)c2ccccc2n1,"inconclusive: 13 µM [cytotoxic, partial curve]",–
CC(C(=O)Nc1ccccc1-c1ccccc1)N(C)Cc1nc2ccccc2c(=O)[nH]1 (configuration not stated),active: 11.6 µM,–
O=C(N/N=C(\Cc1ncc[nH]1)c1ccccc1)c1cccnc1,"inconclusive: 18.4 µM [cytotoxic, single point]",–
O=C(/C=C/c1cccs1)Nc1sc2c(c1C(=O)O)CCCC2,"inconclusive: 29.1 µM [cytotoxic, single point]",–
Cc1cc(C)cc(NC(=O)CSc2nnc(-c3ccc(S(=O)(=O)N4CCCC4)cc3)o2)c1,"inconclusive: 9.2 µM [cytotoxic, partial curve]",–
CCOC(=O)C1CCCN(C(=O)COc2ccc(N(C)S(=O)(=O)c3ccc(F)cc3)cc2)C1 (configuration not stated),"inconclusive: 14.6 µM [cytotoxic, single point]",–
CC(Oc1ccc2c(c1)oc(=O)c1ccccc12)C(=O)NCCN1CCOCC1 (configuration not stated),inactive,–
O=C(CN1CCN(S(=O)(=O)c2ccccc2)CC1)Nc1ccc(Cl)c([N+](=O)[O-])c1,"inconclusive: 29.1 µM [cytotoxic, single point]",–
COc1cccc(C(=O)Nc2ccc(NC(=O)C3CCCCC3C(=O)O)cc2)c1 (configuration not stated),"inconclusive: 29.1 µM [cytotoxic, single point]",–
CC1CN(CCOCCSc2ccc(Cl)cc2)CC(C)O1 (configuration not stated),"inconclusive: 16.4 µM [cytotoxic, single point]",–
COc1ccccc1OCCCCN1CCN(c2ccccc2OC)CC1,inactive,–
Nc1c(C(=O)Nc2nccs2)sc2nc(-c3cccs3)cc(C(F)(F)F)c12,inactive,–
Cc1cccn2c(=O)c3cc(C(=O)NC4CCCC4)c(=N)n(CC4CCCO4)c3nc12 (configuration not stated),"inconclusive: 8.2 µM [cytotoxic, partial curve, poor fit]",–
COc1ccc(CC(=O)Nc2ccc(N3CCCC3)c(C)c2)cc1,"inconclusive: 2.91 µM [rising, partial curve, poor fit]",–
N#CCC(=O)N/N=C/c1ccc(OS(=O)(=O)c2ccccc2)cc1,inactive,–
CCc1nccn1CCC(=O)NC1CC(C)(C)Cc2c1cnn2-c1ccc(OC)cc1 (configuration not stated),"inconclusive: 23.1 µM [rising, single point]",–

# Quoted from the results shown for reference:
SMILES,Potency,"activity change, negative = cytotoxicity"
Cc1cc(C)cc(NC(=O)CSc2nnc(-c3ccc(S(=O)(=O)N4CCCC4)cc3)o2)c1,"inconclusive: 9.2 µM [cytotoxic, partial curve]",–
CCOC(=O)C1CCCN(C(=O)COc2ccc(N(C)S(=O)(=O)c3ccc(F)cc3)cc2)C1 (configuration not stated),"inconclusive: 14.6 µM [cytotoxic, single point]",–
